# Results taken from the supplement of paper PMC11732987, “Enantioselective OTUD7B fragment discovery through chemoproteomics screening and high-throughput optimisation” (Communications Chemistry, 2025).
# This is one part of the list. The data scatter; read single values as rough.
# Experiments:
# [1] = compound: ClCC(=O)N[C@@H]1CCCc2ccccc12; experiment: log2 mean competition ratio of IA-DTB cysteine labelling (DMSO/compound) (log2 ratio); higher = stronger cysteine engagement by compound; conditions: treatment time: 4 h, cell line lysate: HEK293T
# Protocol: (§1)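 IA-DTB competitive cysteine chemoproteomics in HEK293T RIPA lysate. Lysates were treated with compound 29 or 30 at 50 or 200 µM for 4 h, then IA-DTB (500 µM, 1 h), trypsin-digested, NeutrAvidin-enriched and analysed by diaPASEF. Competition ratio = intensity DMSO / intensity compound (n=4 treated, n=64 DMSO); binding: mean log2 CR ≥ 1 and p ≤ 0.05 plus QC filters. Target is the cysteine site.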
# [2] = compound: ClCC(=O)N[C@H]1CCCc2ccccc12; experiment: as above; conditions: treatment time: 4 h, cell line lysate: HEK293T
# Protocol: as §1
target,measurement,setting,value
CLCN3 C783 (UniProt P51790),log2 mean competition ratio,[1]; 50 µM,0.222
same,log2 mean competition ratio,[1]; 200 µM,0.173
same,log2 mean competition ratio,[2]; 50 µM,-0.116
same,log2 mean competition ratio,[2]; 200 µM,-0.0169
COBL C654 (UniProt O75128),log2 mean competition ratio,[1]; 50 µM,-0.00865
same,log2 mean competition ratio,[1]; 200 µM,-0.125
same,log2 mean competition ratio,[2]; 50 µM,-0.192
same,log2 mean competition ratio,[2]; 200 µM,-0.18
COPG1 C516 (UniProt Q9Y678),log2 mean competition ratio,[1]; 50 µM,0.453
same,log2 mean competition ratio,[1]; 200 µM,0.00468
same,log2 mean competition ratio,[2]; 50 µM,-0.182
same,log2 mean competition ratio,[2]; 200 µM,-0.0467
CLIC1 C24 (UniProt O00299),log2 mean competition ratio,[1]; 50 µM,-0.0675
same,log2 mean competition ratio,[1]; 200 µM,0.183
same,log2 mean competition ratio,[2]; 50 µM,-0.458
same,log2 mean competition ratio,[2]; 200 µM,-0.207
CLNS1A C73 (UniProt P54105),log2 mean competition ratio,[1]; 50 µM,0.305
same,log2 mean competition ratio,[1]; 200 µM,0.214
same,log2 mean competition ratio,[2]; 50 µM,-0.0745
same,log2 mean competition ratio,[2]; 200 µM,-0.057
CLCC1 C254 (UniProt Q96S66),log2 mean competition ratio,[1]; 50 µM,-0.062
same,log2 mean competition ratio,[1]; 200 µM,0.169
same,log2 mean competition ratio,[2]; 50 µM,0.0607
same,log2 mean competition ratio,[2]; 200 µM,0.161
CHEK2 C231 (UniProt O96017),log2 mean competition ratio,[1]; 50 µM,-0.0985
same,log2 mean competition ratio,[1]; 200 µM,0.0736
same,log2 mean competition ratio,[2]; 50 µM,0.04
same,log2 mean competition ratio,[2]; 200 µM,0.218
CORO7 C34 (UniProt P57737),log2 mean competition ratio,[1]; 50 µM,-0.14
same,log2 mean competition ratio,[1]; 200 µM,0.33
same,log2 mean competition ratio,[2]; 50 µM,-0.029
same,log2 mean competition ratio,[2]; 200 µM,0.309
COPS4 C255 (UniProt Q9BT78),log2 mean competition ratio,[1]; 50 µM,0.186
same,log2 mean competition ratio,[1]; 200 µM,0.0881
same,log2 mean competition ratio,[2]; 50 µM,-0.298
same,log2 mean competition ratio,[2]; 200 µM,-0.0571
CKMT1B C179,log2 mean competition ratio,[1]; 50 µM,-1.05
same,log2 mean competition ratio,[1]; 200 µM,-2.76
same,log2 mean competition ratio,[2]; 50 µM,-0.881
same,log2 mean competition ratio,[2]; 200 µM,-2.14
CLSPN C944 (UniProt Q9HAW4),log2 mean competition ratio,[1]; 50 µM,-0.258
same,log2 mean competition ratio,[1]; 200 µM,0.192
same,log2 mean competition ratio,[2]; 50 µM,-0.285
same,log2 mean competition ratio,[2]; 200 µM,0.195
CIC C336,log2 mean competition ratio,[1]; 50 µM,-0.0383
same,log2 mean competition ratio,[1]; 200 µM,-0.239
same,log2 mean competition ratio,[2]; 50 µM,-0.0869
same,log2 mean competition ratio,[2]; 200 µM,-0.208
COMMD3 C90 (UniProt Q9UBI1),log2 mean competition ratio,[1]; 50 µM,-0.299
same,log2 mean competition ratio,[1]; 200 µM,0.123
same,log2 mean competition ratio,[2]; 50 µM,-0.309
same,log2 mean competition ratio,[2]; 200 µM,-0.175
CLTCL1 C1404 (UniProt P53675),log2 mean competition ratio,[1]; 50 µM,-0.223
same,log2 mean competition ratio,[1]; 200 µM,-0.168
same,log2 mean competition ratio,[2]; 50 µM,-0.227
same,log2 mean competition ratio,[2]; 200 µM,-0.0253
CNPY3 C194 (UniProt Q9BT09),log2 mean competition ratio,[1]; 50 µM,0.0779
same,log2 mean competition ratio,[1]; 200 µM,0.213
same,log2 mean competition ratio,[2]; 50 µM,-0.209
same,log2 mean competition ratio,[2]; 200 µM,0.0444
CHD8 C2378 (UniProt Q9HCK8),log2 mean competition ratio,[1]; 50 µM,0.29
same,log2 mean competition ratio,[1]; 200 µM,0.0432
same,log2 mean competition ratio,[2]; 50 µM,0.0832
same,log2 mean competition ratio,[2]; 200 µM,0.173
COBL C1032 (UniProt O75128),log2 mean competition ratio,[1]; 50 µM,-0.412
same,log2 mean competition ratio,[1]; 200 µM,0.319
same,log2 mean competition ratio,[2]; 50 µM,-0.422
same,log2 mean competition ratio,[2]; 200 µM,0.149
CPNE3 C5 (UniProt O75131),log2 mean competition ratio,[1]; 50 µM,0.139
same,log2 mean competition ratio,[1]; 200 µM,-0.21
same,log2 mean competition ratio,[2]; 50 µM,0.201
same,log2 mean competition ratio,[2]; 200 µM,-0.361
CNP C158 (UniProt P09543),log2 mean competition ratio,[1]; 50 µM,0.173
same,log2 mean competition ratio,[1]; 200 µM,0.0389
same,log2 mean competition ratio,[2]; 50 µM,0.375
same,log2 mean competition ratio,[2]; 200 µM,0.11
CORO1C C456 (UniProt Q9ULV4),log2 mean competition ratio,[1]; 50 µM,-0.0907
same,log2 mean competition ratio,[1]; 200 µM,-0.0545
same,log2 mean competition ratio,[2]; 50 µM,-0.229
same,log2 mean competition ratio,[2]; 200 µM,-0.505
CNST C317 (UniProt Q6PJW8),log2 mean competition ratio,[1]; 50 µM,-0.136
same,log2 mean competition ratio,[1]; 200 µM,0.0866
same,log2 mean competition ratio,[2]; 50 µM,-0.0234
same,log2 mean competition ratio,[2]; 200 µM,0.11
COPA C580 (UniProt P53621),log2 mean competition ratio,[1]; 50 µM,0.169
same,log2 mean competition ratio,[1]; 200 µM,-0.0252
same,log2 mean competition ratio,[2]; 50 µM,0.408
same,log2 mean competition ratio,[2]; 200 µM,0.00664
COG8 C225 (UniProt Q96MW5),log2 mean competition ratio,[1]; 50 µM,-0.152
same,log2 mean competition ratio,[1]; 200 µM,-0.197
same,log2 mean competition ratio,[2]; 50 µM,6.38e-05
same,log2 mean competition ratio,[2]; 200 µM,-0.161
CMTR1 C9 (UniProt Q8N1G2),log2 mean competition ratio,[1]; 50 µM,-0.144
same,log2 mean competition ratio,[1]; 200 µM,-0.207
same,log2 mean competition ratio,[2]; 50 µM,-0.0477
same,log2 mean competition ratio,[2]; 200 µM,-0.174
CKAP5 C493 (UniProt Q14008),log2 mean competition ratio,[1]; 50 µM,0.152
same,log2 mean competition ratio,[1]; 200 µM,-0.254
same,log2 mean competition ratio,[2]; 50 µM,0.189
same,log2 mean competition ratio,[2]; 200 µM,-0.249
CKAP5 C619 (UniProt Q14008),log2 mean competition ratio,[1]; 50 µM,0.27
same,log2 mean competition ratio,[1]; 200 µM,0.267
same,log2 mean competition ratio,[2]; 50 µM,-0.101
same,log2 mean competition ratio,[2]; 200 µM,0.234
CNKSR3 C191,log2 mean competition ratio,[1]; 50 µM,-0.153
same,log2 mean competition ratio,[1]; 200 µM,0.303
same,log2 mean competition ratio,[2]; 50 µM,-0.211
same,log2 mean competition ratio,[2]; 200 µM,0.385
CLTC C870 (UniProt Q00610),log2 mean competition ratio,[1]; 50 µM,0.117
same,log2 mean competition ratio,[1]; 200 µM,-0.262
same,log2 mean competition ratio,[2]; 50 µM,0.101
same,log2 mean competition ratio,[2]; 200 µM,-0.238
CNN3 C173 (UniProt Q15417),log2 mean competition ratio,[1]; 50 µM,0.665
same,log2 mean competition ratio,[1]; 200 µM,-0.0317
same,log2 mean competition ratio,[2]; 50 µM,0.51
same,log2 mean competition ratio,[2]; 200 µM,-0.0112
CLEC16A C657 (UniProt Q2KHT3),log2 mean competition ratio,[1]; 50 µM,-0.0858
same,log2 mean competition ratio,[1]; 200 µM,0.534
same,log2 mean competition ratio,[2]; 50 µM,-0.289
same,log2 mean competition ratio,[2]; 200 µM,-0.0397
CPSF6 C476 (UniProt Q16630),log2 mean competition ratio,[1]; 50 µM,-0.212
same,log2 mean competition ratio,[1]; 200 µM,0.326
same,log2 mean competition ratio,[2]; 50 µM,-0.754
same,log2 mean competition ratio,[2]; 200 µM,-0.0155
CLASP1 C173 (UniProt Q7Z460),log2 mean competition ratio,[1]; 50 µM,0.465
same,log2 mean competition ratio,[1]; 200 µM,0.123
same,log2 mean competition ratio,[2]; 50 µM,-0.291
same,log2 mean competition ratio,[2]; 200 µM,-0.179
COMMD8 C32 (UniProt Q9NX08),log2 mean competition ratio,[1]; 50 µM,-0.13
same,log2 mean competition ratio,[1]; 200 µM,-0.0626
same,log2 mean competition ratio,[2]; 50 µM,-0.013
same,log2 mean competition ratio,[2]; 200 µM,-0.109
CLSPN C397 (UniProt Q9HAW4),log2 mean competition ratio,[1]; 50 µM,-0.616
same,log2 mean competition ratio,[1]; 200 µM,0.805
same,log2 mean competition ratio,[2]; 50 µM,-0.305
same,log2 mean competition ratio,[2]; 200 µM,0.459
CLTCL1 C1205 (UniProt P53675),log2 mean competition ratio,[1]; 50 µM,0.315
same,log2 mean competition ratio,[1]; 200 µM,0.159
same,log2 mean competition ratio,[2]; 50 µM,-0.362
same,log2 mean competition ratio,[2]; 200 µM,0.19
CINP C120 (UniProt Q9BW66),log2 mean competition ratio,[1]; 50 µM,-0.241
same,log2 mean competition ratio,[1]; 200 µM,-0.19
same,log2 mean competition ratio,[2]; 50 µM,-0.755
same,log2 mean competition ratio,[2]; 200 µM,0.0552
CHEK2 C539 (UniProt O96017),log2 mean competition ratio,[1]; 50 µM,0.0887
same,log2 mean competition ratio,[1]; 200 µM,-0.0704
same,log2 mean competition ratio,[2]; 50 µM,0.686
same,log2 mean competition ratio,[2]; 200 µM,-0.00889
CHUK C406 (UniProt O15111),log2 mean competition ratio,[1]; 50 µM,0.421
same,log2 mean competition ratio,[1]; 200 µM,-0.243
same,log2 mean competition ratio,[2]; 50 µM,0.163
same,log2 mean competition ratio,[2]; 200 µM,0.022
COPG1 C813 (UniProt Q9Y678),log2 mean competition ratio,[1]; 50 µM,-0.0302
same,log2 mean competition ratio,[1]; 200 µM,-0.0654
same,log2 mean competition ratio,[2]; 50 µM,-0.246
same,log2 mean competition ratio,[2]; 200 µM,-0.0603
CHM C187 (UniProt P24386),log2 mean competition ratio,[1]; 50 µM,-0.139
same,log2 mean competition ratio,[1]; 200 µM,-0.211
same,log2 mean competition ratio,[2]; 50 µM,-0.981
same,log2 mean competition ratio,[2]; 200 µM,0.0172
COMMD9 C160 (UniProt Q9P000),log2 mean competition ratio,[1]; 50 µM,-0.168
same,log2 mean competition ratio,[1]; 200 µM,-0.267
same,log2 mean competition ratio,[2]; 50 µM,-0.113
same,log2 mean competition ratio,[2]; 200 µM,-0.494
CORO7 C691 (UniProt P57737),log2 mean competition ratio,[1]; 50 µM,-0.27
same,log2 mean competition ratio,[1]; 200 µM,-0.0407
same,log2 mean competition ratio,[2]; 50 µM,-0.0121
same,log2 mean competition ratio,[2]; 200 µM,0.0903
COG7 C174 (UniProt P83436),log2 mean competition ratio,[1]; 50 µM,0.426
same,log2 mean competition ratio,[1]; 200 µM,1.03
same,log2 mean competition ratio,[2]; 50 µM,0.257
same,log2 mean competition ratio,[2]; 200 µM,0.671
CPSF6 C159 (UniProt Q16630),log2 mean competition ratio,[1]; 50 µM,-0.126
same,log2 mean competition ratio,[1]; 200 µM,-0.0504
same,log2 mean competition ratio,[2]; 50 µM,0.156
same,log2 mean competition ratio,[2]; 200 µM,-0.0954

# Another view of some results above.
target	measurement	setting	value
COPG1 C516 (UniProt Q9Y678)	log2 mean competition ratio	[2]; 50 µM	-0.182
CLNS1A C73 (UniProt P54105)	log2 mean competition ratio	[2]; 200 µM	-0.057
CHEK2 C231 (UniProt O96017)	log2 mean competition ratio	[2]; 200 µM	0.218
CIC C336	log2 mean competition ratio	[1]; 50 µM	-0.0383
same	log2 mean competition ratio	[2]; 50 µM	-0.0869
same	log2 mean competition ratio	[2]; 200 µM	-0.208
CLEC16A C657 (UniProt Q2KHT3)	log2 mean competition ratio	[2]; 50 µM	-0.289

# Already shown: entries from further up.
target,measurement,setting,value
CORO1C C456 (UniProt Q9ULV4),log2 mean competition ratio,[1]; 200 µM,-0.0545
same,log2 mean competition ratio,[2]; 50 µM,-0.229
same,log2 mean competition ratio,[2]; 200 µM,-0.505
